PubChem BioAssay AID1224830 | NIAID, 2016
The whole screen tested about 18,000 reagents; shown is a part drawn at random. About 2,900 of all reagents (16%) count as active. 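Calls are made per well; low scores hint the gene aids the LPS response, high scores that it dampens it.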 Entries without a mark were called inactive. Reagents against one gene are numbered here. Repeated entries: four replicate wells of each siRNA pool.

- Screen: 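Genes whose knock-down alters the TNF-alpha reporter response to LPS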 (primary screen)
- System: human THP-1 monocytic leukaemia cells, TNF dual-luciferase reporter clone, PMA-differentiated to macrophage-like cells
- Knock-down reagent: siRNA pool against human genes, 50 nM
- Time to read-out: LPS for 4 h, given about 3 days after siRNA transfection
- Challenge: bacterial LPS (TLR4 ligand), 10 ng/ml
- Detection: 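Ratio of firefly to renilla light, scaled to the plate median and expressed as a robust z-score per replicate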
- Direction: TNF reporter robust z-score: higher = stronger TNF reporter response to LPS
- Rule for the call: 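a well is active when its z-score exceeds 2.8 or falls below -1.5; control wells carry no call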

target | pool no. | TNF reporter robust z-score
CABP7 | 1 | 0.19
CABP7 | 1 | -0.84
CABP7 | 1 | -0.65
CABP7 | 1 | 0.99
MAN1A2 | 1 | -0.59
MAN1A2 | 1 | -0.03
MAN1A2 | 1 | -0.38
MAN1A2 | 1 | 0.46
GNA15 | 1 | -1.04
GNA15 | 1 | -0.75
GNA15 | 1 | -0.96
GNA15 | 1 | -0.06
CCN1 | 1 | -0.45
CCN1 | 1 | 0.43
CCN1 | 1 | -1.1
CCN1 | 1 | -0.28
BMI1 | 1 | -1.18
BMI1 | 1 | 0.2
BMI1 | 1 | -0.53
BMI1 | 1 | 0.34
RBFOX3 | 1 | 0.27
RBFOX3 | 1 | 2.42
RBFOX3 | 1 | -0.19
RBFOX3 | 1 | -0.79
RBFOX3 | 2 | -1.4
RBFOX3 | 2 | -1.08
RBFOX3 | 2 | -0.99
RBFOX3 | 2 | 0.05

5 of these entries, reformatted.
target	pool no.	TNF reporter robust z-score
MAN1A2	1	0.46
GNA15	1	-1.04
GNA15	1	-0.75
GNA15	1	-0.96
GNA15	1	-0.06

Additional results follow:
target | pool no. | TNF reporter robust z-score
EGLN2 | 1 | -0.56
EGLN2 | 1 | 0.29
EGLN2 | 1 | 0.34
TFAP2D | 1 | 2.5
TFAP2D | 1 | 2.62
TFAP2D | 1 | 0.99
TFAP2D | 1 | 0.97
RFX4 | 1 | -0.06
RFX4 | 1 | -1.07
RFX4 | 1 | 0.1
RFX4 | 1 | 2.55
CDA | 1 | -0.44
CDA | 1 | -0.62
CDA | 1 | 0.11
CDA | 1 | -0.84
KRTAP5-8 | 1 | 2.2
KRTAP5-8 | 1 | 3.12 (active)
KRTAP5-8 | 1 | 1.82
KRTAP5-8 | 1 | 1.23
